Data: doi:10.1101/827725
These are yes or no findings as the source states them, for the method shown. In cells and extracts the contact can be indirect. Some binding calls cover weakened binding; strength is not graded here.

Amino acid sequences for entries named in this document (tags omitted).
UniProt P46937: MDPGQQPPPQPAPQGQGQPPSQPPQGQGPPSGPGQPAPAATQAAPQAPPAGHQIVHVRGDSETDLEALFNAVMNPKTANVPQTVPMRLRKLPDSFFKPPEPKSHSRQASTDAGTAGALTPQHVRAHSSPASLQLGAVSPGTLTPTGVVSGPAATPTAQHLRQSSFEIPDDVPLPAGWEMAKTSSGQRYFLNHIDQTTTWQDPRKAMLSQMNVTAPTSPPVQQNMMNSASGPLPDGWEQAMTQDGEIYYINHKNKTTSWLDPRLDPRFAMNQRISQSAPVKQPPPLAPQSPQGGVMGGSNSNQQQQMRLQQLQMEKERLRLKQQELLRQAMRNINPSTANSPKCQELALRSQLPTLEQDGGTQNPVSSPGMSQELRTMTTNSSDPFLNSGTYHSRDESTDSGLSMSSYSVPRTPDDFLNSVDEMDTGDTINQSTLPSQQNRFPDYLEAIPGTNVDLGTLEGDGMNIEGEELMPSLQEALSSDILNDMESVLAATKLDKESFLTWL

Tests used:
[1] = biological target: phospho-YAP (pYAP-S127) (human (endogenous in HaCaT and primary foreskin keratinocytes)) (UniProt P46937); test: co-IP
[2] = biological target: Yes-associated protein (YAP) (human (endogenous in HaCaT and primary foreskin keratinocytes)) (UniProt P46937); test: co-IP

binding [1]: binds
binding [2]: binds
B1: plakophilin1 (protein, UniProt Q13835 1-747)
chain: MNHSPLKTALAYECFQDQDNSTLALPSDQKMKTGTSGRQRVQEQVMMTVKRQKSKSSQSSTLSHSNRGSMYDGLADNYNYGTTSRSSYYSKFQAGNGSWGYPIYNGTLKREPDNRRFSSYSQMENWSRHYPRGSCNTTGAGSDICFMQKIKASRSEPDLYCDPRGTLRKGTLGSKGQKTTQNRYSFYSTCSGQKAIKKCPVRPPSCASKQDPVYIPPISCNKDLSFGHSRASSKICSEDIECSGLTIPKAVQYLSSQDEKYQAIGAYYIQHTCFQDESAKQQVYQLGGICKLVDLLRSPNQNVQQAAAGALRNLVFRSTTNKLETRRQNGIREAVSLLRRTGNAEIQKQLTGLLWNLSSTDELKEELIADALPVLADRVIIPFSGWCDGNSNMSREVVDPEVFFNATGCLRKRLGMRELLALVPQRATSSRVNLSSADAGRQTMRNYSGLIDSLMAYVQNCVAASRCDDKSVENCMCVLHNLSYRLDAEVPTRYRQLEYNARNAYTEKSSTGCFSNKSDKMMNNNYDCPLPEEETNPKGSGWLYHSDAIRTYLNLMGKSKKDATLEACAGALQNLTASKGLMSSGMSQLIGLKEKGLPQIARLLQSGNSDVVRSGASLLSNMSRHPLLHRVMGNQVFPEVTRLLTSHTGNTSNSEDILSSACYTVRNLMASQPQLAKQYFSSSMLNNIINLCRSSASPKAAEAARLLLSDMWSSKELQGVLRQQGFDRNMLGTLAGANSLRNFTSRF
